These are yes or no findings as the source states them, for the method shown. In cells and extracts the contact can be indirect. A yes stands for co-enrichment or nearness to the bait. Other partners may have been found. Where a sequence is shown, tags or fusion partners need not be part of it.

The chains behind the UniProt entries cited, without tags or fusion partners.
UniProt P70398: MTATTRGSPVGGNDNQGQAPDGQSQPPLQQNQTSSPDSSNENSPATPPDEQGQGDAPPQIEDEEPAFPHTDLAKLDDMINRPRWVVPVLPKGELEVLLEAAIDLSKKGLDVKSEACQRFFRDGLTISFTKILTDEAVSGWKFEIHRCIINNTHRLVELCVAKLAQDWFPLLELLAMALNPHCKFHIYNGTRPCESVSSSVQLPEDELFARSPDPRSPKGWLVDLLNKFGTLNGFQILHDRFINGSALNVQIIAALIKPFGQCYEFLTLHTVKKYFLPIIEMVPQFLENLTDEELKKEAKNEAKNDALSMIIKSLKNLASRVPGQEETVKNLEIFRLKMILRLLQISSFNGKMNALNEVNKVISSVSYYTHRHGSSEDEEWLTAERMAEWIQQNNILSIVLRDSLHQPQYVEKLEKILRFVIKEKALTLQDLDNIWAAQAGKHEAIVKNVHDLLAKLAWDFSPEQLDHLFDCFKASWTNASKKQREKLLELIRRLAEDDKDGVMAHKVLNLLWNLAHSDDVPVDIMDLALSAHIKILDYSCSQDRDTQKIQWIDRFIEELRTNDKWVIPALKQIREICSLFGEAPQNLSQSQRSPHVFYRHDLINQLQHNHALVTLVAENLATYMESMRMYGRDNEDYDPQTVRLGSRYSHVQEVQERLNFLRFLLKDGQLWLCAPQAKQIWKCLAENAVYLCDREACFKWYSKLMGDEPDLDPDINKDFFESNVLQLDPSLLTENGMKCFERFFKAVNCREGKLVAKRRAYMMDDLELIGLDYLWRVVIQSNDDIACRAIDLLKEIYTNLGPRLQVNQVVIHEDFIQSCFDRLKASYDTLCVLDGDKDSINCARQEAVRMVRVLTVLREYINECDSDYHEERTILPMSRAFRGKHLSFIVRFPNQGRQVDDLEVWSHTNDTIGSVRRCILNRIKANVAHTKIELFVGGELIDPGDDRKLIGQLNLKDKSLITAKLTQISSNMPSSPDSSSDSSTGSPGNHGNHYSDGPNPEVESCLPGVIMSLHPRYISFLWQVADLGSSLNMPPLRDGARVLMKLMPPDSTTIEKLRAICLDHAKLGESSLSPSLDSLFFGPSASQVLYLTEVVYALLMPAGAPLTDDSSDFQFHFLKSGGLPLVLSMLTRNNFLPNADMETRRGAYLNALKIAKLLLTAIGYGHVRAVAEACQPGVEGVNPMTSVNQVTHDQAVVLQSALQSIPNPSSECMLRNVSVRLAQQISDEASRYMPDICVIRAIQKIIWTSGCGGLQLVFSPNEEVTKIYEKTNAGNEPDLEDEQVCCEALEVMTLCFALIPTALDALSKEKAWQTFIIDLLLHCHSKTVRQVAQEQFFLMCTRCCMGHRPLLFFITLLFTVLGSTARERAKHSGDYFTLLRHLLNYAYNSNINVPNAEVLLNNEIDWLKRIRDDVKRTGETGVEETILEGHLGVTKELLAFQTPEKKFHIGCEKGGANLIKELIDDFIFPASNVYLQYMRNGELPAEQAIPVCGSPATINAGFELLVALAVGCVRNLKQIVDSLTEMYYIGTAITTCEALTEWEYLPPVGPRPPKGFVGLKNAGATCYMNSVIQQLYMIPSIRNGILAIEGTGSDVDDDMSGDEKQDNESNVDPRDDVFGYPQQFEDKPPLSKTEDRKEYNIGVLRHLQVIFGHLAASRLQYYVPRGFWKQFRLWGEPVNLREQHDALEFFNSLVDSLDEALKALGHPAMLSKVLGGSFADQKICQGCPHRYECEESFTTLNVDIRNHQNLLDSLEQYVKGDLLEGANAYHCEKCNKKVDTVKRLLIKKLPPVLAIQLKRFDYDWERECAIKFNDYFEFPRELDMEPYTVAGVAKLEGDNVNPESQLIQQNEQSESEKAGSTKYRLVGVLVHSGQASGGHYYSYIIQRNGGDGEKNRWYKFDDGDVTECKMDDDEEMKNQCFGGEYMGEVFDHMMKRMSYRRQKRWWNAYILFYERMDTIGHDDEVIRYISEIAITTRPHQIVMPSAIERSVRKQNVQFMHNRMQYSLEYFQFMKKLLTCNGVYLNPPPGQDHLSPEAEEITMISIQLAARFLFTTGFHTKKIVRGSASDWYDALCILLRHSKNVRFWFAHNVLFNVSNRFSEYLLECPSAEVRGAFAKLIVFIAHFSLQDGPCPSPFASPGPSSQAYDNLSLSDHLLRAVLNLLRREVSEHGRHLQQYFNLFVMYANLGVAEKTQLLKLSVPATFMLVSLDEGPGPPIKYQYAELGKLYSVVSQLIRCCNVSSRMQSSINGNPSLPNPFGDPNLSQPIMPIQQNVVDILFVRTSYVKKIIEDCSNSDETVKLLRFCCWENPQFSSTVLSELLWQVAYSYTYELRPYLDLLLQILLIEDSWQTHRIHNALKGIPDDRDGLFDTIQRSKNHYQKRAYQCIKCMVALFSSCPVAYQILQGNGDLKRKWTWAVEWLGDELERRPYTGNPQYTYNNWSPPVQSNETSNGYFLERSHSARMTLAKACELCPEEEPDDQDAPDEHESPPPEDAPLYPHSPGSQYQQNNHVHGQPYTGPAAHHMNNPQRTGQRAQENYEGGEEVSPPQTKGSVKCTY
UniProt Q61414: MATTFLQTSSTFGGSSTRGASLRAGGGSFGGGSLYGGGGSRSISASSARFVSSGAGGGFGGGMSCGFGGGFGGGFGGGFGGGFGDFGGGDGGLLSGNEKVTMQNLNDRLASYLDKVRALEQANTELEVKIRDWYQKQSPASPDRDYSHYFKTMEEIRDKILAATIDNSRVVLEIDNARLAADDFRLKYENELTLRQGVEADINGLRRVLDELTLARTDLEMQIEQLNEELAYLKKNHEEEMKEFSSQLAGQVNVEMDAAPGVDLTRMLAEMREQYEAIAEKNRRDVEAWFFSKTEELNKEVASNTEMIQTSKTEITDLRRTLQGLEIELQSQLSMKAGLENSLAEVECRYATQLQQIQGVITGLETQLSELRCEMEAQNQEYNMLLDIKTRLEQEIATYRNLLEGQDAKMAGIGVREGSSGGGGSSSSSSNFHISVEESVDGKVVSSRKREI
UniProt Q9DBH0: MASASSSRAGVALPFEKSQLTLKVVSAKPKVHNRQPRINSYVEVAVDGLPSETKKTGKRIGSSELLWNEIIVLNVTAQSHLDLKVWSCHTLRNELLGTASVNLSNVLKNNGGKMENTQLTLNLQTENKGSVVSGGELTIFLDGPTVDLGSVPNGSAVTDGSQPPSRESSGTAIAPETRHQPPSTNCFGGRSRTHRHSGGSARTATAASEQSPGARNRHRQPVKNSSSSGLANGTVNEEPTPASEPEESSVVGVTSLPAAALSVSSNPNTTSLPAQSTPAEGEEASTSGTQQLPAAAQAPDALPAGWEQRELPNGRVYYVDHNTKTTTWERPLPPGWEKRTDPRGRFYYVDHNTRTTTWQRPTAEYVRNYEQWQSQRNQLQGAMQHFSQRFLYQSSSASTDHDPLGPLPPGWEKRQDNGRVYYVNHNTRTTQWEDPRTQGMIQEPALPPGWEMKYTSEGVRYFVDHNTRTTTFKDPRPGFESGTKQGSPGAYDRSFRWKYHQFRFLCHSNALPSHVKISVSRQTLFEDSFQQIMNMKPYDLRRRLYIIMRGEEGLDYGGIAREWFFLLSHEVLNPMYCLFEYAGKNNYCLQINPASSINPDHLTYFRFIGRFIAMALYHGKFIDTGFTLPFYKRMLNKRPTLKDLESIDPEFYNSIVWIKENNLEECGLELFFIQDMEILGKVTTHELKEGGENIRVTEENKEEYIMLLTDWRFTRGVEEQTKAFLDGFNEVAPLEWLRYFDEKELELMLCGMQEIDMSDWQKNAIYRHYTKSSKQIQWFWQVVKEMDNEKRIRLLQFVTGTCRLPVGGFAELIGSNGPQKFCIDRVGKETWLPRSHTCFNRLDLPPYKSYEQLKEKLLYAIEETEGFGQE
UniProt P63094: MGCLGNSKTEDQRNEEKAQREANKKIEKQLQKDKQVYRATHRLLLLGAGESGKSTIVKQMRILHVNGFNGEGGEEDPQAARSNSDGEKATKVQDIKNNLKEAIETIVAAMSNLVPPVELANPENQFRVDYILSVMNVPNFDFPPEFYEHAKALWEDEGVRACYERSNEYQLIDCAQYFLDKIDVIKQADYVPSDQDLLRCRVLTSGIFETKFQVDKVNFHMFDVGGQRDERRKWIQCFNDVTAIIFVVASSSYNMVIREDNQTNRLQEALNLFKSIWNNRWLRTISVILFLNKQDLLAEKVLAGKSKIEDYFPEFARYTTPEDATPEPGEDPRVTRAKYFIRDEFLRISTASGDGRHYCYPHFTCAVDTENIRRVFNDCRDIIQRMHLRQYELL
UniProt Q9DCV7: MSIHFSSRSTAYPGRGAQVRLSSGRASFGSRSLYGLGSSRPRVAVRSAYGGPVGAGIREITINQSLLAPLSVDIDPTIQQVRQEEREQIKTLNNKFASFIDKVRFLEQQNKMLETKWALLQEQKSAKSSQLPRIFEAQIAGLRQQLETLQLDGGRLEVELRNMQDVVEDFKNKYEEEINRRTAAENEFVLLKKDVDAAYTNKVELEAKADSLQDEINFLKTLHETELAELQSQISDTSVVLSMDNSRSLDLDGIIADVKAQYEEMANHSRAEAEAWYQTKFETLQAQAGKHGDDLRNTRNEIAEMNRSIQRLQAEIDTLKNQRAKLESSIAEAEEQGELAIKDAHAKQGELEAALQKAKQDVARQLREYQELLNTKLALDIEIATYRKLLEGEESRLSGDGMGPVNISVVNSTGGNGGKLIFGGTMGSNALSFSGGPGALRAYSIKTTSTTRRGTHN
UniProt P56399: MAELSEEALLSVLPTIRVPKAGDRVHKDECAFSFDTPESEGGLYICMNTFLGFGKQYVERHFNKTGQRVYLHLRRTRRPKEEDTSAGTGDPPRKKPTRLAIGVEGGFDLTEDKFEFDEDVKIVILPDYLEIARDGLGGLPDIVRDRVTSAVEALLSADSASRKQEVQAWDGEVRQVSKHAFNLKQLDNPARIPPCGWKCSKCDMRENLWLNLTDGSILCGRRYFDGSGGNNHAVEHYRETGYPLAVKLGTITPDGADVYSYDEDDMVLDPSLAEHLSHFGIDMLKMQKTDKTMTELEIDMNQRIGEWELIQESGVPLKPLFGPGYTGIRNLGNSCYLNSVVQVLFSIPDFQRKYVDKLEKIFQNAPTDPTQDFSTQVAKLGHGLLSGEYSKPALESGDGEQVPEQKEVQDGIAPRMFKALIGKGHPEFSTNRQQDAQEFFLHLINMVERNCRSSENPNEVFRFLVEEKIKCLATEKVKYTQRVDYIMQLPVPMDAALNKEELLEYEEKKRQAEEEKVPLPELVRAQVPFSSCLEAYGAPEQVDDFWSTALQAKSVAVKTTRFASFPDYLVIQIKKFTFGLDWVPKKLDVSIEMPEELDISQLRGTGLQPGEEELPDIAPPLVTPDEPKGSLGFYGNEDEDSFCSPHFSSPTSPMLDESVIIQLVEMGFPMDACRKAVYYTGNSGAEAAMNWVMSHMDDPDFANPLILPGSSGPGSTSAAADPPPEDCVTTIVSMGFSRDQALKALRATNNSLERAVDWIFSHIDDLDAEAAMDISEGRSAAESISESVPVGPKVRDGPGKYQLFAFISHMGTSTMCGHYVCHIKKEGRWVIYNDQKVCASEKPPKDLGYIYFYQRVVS
UniProt Q7TSY6: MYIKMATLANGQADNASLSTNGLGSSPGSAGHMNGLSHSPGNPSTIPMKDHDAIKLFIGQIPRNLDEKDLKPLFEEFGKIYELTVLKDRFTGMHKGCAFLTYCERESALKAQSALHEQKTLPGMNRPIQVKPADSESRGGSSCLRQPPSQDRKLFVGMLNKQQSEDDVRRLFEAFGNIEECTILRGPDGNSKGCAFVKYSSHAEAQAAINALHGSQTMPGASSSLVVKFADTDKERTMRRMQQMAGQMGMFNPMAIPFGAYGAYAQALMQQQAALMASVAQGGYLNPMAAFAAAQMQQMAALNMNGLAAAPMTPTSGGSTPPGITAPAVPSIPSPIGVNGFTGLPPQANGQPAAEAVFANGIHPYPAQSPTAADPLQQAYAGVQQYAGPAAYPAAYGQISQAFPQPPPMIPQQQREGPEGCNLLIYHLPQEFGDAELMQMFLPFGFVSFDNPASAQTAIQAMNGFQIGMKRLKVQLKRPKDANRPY

The labels stand for the following.
T1: Flag‐tagged Tipe1 (bait of the IP/mass spectrometry) (UniProt Q8K288)
T1 sequence: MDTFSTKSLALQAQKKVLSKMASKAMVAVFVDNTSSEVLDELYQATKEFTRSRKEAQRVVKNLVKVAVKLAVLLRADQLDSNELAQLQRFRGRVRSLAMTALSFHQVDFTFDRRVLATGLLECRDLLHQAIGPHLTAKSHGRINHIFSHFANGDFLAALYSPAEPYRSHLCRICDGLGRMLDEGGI

B1: MAEA (captured in the mass spectrometry) (enzyme, UniProt Q4VC33 1-396)
chain: MAVQESAAQLSMTLKVQEYPTLKVPYETLNKRFRAAQKNIDRETSHVTMVVAELEKTLSSCPAVDSVVSLLDGVVEKLSVLKRKAVESIQAEDESAKLCKRRIEHLKEHSSDQPAAASMWKRKRMDRMMVEHLLRCGYYNTAVKLARQSGIEDLVNIEMFLTAKEVEESLERRETATCLAWCHDNKSRLRKMKSCLEFSLRIQEFIELVRQNKRLDAVRHARKHFSQAEGSQLDEVRQVMGMLAFPPDTHISPYKDLLDPARWRMLIQQFRYDNYRLHQLGNSSVFTLTLQAGLSAIKTPQCYKEDGSSKSPDCPVCSRSLNKLAQPLPMAHCANSRLVCKISGDVMNENNPPMMLPNGYVYGYNSLLSIRQDDKVVCPRTKEVFHFSQAEKVYIM
B2: GΑSP1 (encoded by Gprasp1) (protein, UniProt Q5U4C1 1-1347)
chain: MTRAEVEPGAQAKAENKPGDENANAAEVEPEAPLVVRPKVRTQIMTGARPKVKPKGTPGARPKGETSTPGGAYAKCKPKAIPIARSKHDAQVWAPNKFRGESMSKMGKQCQISAADPPLLSNDSGMVAQAKCLPVDRELANMDTESIPKKANSPAGFQPSYGSEEGTNMGSWYRARPVPKGEAYENSDFKWADKPSGSPSFWNRDEASTRFRPRKSMKANNRFRHMAKQEANTMPRHKNKQEFYNISSSDSEDESGKTPWFWPKDKTKVWSKPKEEPNSRSWFRSKKEVRVESTSGSECENPTKSLFWSGEEAKSRSKPRARKGVNMRARQQAKREACSDAMSGAIDTNKKESWFLPEEKANVFSKSKTKKEPRTRAVPKEEVKTKARASTKQEARPEEEVLVGAWFWDTQESTMADRISIKTTFVEEEPIVGDWFWSEEEASVDSETCHTSRPRAKEEQVSSFCLGSGKKSSMESGPKATSKSMPVAKEDEVVIGSWFWADDEEINLQADDESIFGSWFWGTGENSLRSVGVNCEKMPKAGEKEVTDSWFWAGDVNTEAEVEEQARSASTKATIFVPWFWSEKQPNMDLGSEPCSDIMAGAEEEPIIGPWFWAKVDNSVEAEVNSKSSLEDEEEPIRSPWFGAREQTDMKYAAGIRYKPMAEAEDANKKSCVWAKEPCLYPTNRECLKSTLGEKEDTVDPWLWSNNYPRTKTITGSWLWAAEEGNIDDETGEKIKLPTLEDNAFNSWFWKENEESIVEAPKREEFRPEAEEEDIIGSWFWAGDEDRFEPAAKINEENKIASEDEDTVGSWFWGNEEASLEAVRRGTFESAPGIKEEKVTGSWFWTDKAKVGAGSQTVETGSETEEEAIFESLIWAAKKDSIQAGVKRVSKPKDDGNIAVGSWLWSSDKATKEAKTLIVSEASPENGKESVVKFGSRAKDEVINKTGSGDNCKHSTEAETIVGAWFWEGDEASFESNPVPVCKAVCEPESSAEHEPDPSRRPQSWDEVTVQFKAGPWGKAGFPPMNPFRFPKEAASLFAEMFGGKPKLVEVGPEREPEPQFPFQYDPSYRSVREIREHLKARESAQPENWSCNCIQCELRIGSEEFEELLLLMDRNRDPFIHEISKIAMGMRGASQFTRDFIRNSGVVSLIEALLNYPSSRVRTRFLENMVRMAPPYPDLNMIETYVCQICEDTFDYDLDSPDQLSGLTMITHLTATSDYHKVVVNYLAGFFYLLNSGNTKTRFHVLKLLLNLSENLVMTKRLLVTDSVSEFMDLINREESDENIQIVLAIFETISKHIQKEALFSDDDDDDEEEDAVNLEPFISAFREAEKIAKELKRKPGNQKAP
B3: Diras2 (protein, UniProt Q5PR73 1-199)
chain: MPEQSNDYRVAVFGAGGVGKSSLVLRFVKGTFRESYIPTVEDTYRQVISCDKSICTLQITDTTGSHQFPAMQRLSISKGHAFILVYSITSRQSLEELKPIYEQICEIKGDVESIPIMLVGNKCDESPNREVQSSEAEALARTWKCAFMETSAKLNHNVKELFQELLNLEKRRTVSLQIDGKKSKQQKRKEKLKGKCVVM
B4: Cp (protein, UniProt Q61147 20-1061)
chain: RDKHYFIGITEAVWDYASGTEEKKLISVDTEQSNFYLQNGPDRIGRKYKKALYFEYTDGTFSKTIDKPAWLGFLGPVIKAEVEDKVYVHLKNLASRIYTFHAHGVTYTKEYEGAVYPDNTTDFQRADDKVLPGQQYVYVLHANEPSPGEGDSNCVTRIYHSHVDAPKDIASGLIGPLILCKKGSLYKEKEKNIDQEFVLMFSVVDENLSWYLEDNIKTFCSEPEKVDKDNEDFQESNRMYSINGYTFGSLPGLSMCAADRVKWYLFGMGNEVDVHSAFFHGQALTSRNYQTDIINLFPATLIDAYMVAQNPGVWMLSCQNLNHLKAGLQAFFQVRDCNKPSPEDNIQDRHVRHYYIAAEEVIWNYAPSGTDIFTGENLTALESDSRVFFEQGATRIGGSYKKMAYREYTDGSFTNRKQRGPDEEHLGILGPVIWAEVGDTIKVTFHNKGQHPLSIQPMGVSFTAENEGTYYGPPGRSSQQAASHVAPKETFTYEWTVPKEMGPTYADPVCLSKMYYSGVDPTKDIFTGLIGPMKICKKGSLLADGRQKDVDKEFYLFPTVFDENESLLLDDNIRMFTTAPDQVDKEDEDFQESNKMHSMNGFMYGNQPGLNMCLGESIVWYLFSAGNEADVHGIYFSGNTYLSKGERRDTANLFPHKSLTLLMNPDTKGTFDVECLTTDHYTGGMKQKYTVNQCQRQFEDFTVYLGERTYYVAAVEVEWDYSPSRAWEKELHHLQEQNVSNVFLDKEEFFIGSKYKKVVYRQFTDSSFREQVKRRAEDEHLGILGPPIHANVGDKVKVVFKNMATRPYSIHAHGVKTESSTVVPTLPGEVRTYTWQIPERSGAGREDSACIPWAYYSTVDRVKDLYSGLIGPLIVCRKSYVKVFSPKKKMEFFLLFLVFDENESWYLDDNIKTYSEHPEKVNKDNEEFLESNKMHAINGKMFGNLQGLTMHVKDEVNWYVMGMGNEIDLHTVHFHGHSFQYKHRGVYSSDVFDLFPGTYQTLEMFPQTPGTWLLHCHVTDHVHAGMATTYTVLPVEQETKSG
B5: Esyt1 (protein, UniProt Q3U7R1 1-1092)
chain: MEHSPEEGASPEPSGQPPATDSTRDGGSGVPPAGPGAASEALAVLTSFGRRLLVLVPVYLAGAAGLSVGFVLFGLALYLGWRRVRDGKERSLRAARQLLDDEERITAETLYMSHRELPAWVSFPDVEKAEWLNKIVAQVWPFLGQYMEKLLAETVAPAVRGANPHLQTFTFTRVELGEKPLRIIGVKVHPSQRKDQILLDLNVSYVGDVQIDVEVKKYFCKAGVKGMQLHGVLRVILEPLTGDLPIVGAVSMFFIKRPTLDINWTGMTNLLDIPGLSSLSDTMIMDSIAAFLVLPNRLLVPLVPDLQDVAQLRSPLPRGIIRIHLLAARGLSSKDKYVKGLIEGKSDPYALVRVGTQTFCSRVIDEELNPHWGETYEVIVHEVPGQEIEVEVFDKDPDKDDFLGRMKLDVGKVLQAGVLDNWYPLQGGQGQVHLRLEWLSLLPDAEKLDQVLQWNRGITSRPEPPSAAILVVYLDRAQDLPLKKGNKEPNPMVQLSVQDVTRESKATYSTNSPVWEEAFRFFLQDPRSQELDVQVKDDSRALTLGALTLPLARLLTASELTLDQWFQLSSSGPNSRLYMKLVMRILYLDYSEIRFPTVPGAQDWDRESLETGSSVDAPPRPYHTTPNSHFGTENVLRIHVLEAQDLIAKDRFLGGLVKGKSDPYVKLKVAGKSFRTHVVREDLNPRWNEVFEVIVTSIPGQELEIEVFDKDLDKDDFLGRYKVSLTTVLNSGFLDEWLTLEDVPSGRLHLRLERLTPRPTAAELEEVLQVNSLIQTQKSSELAAALLSVFLERAEDLPLRKGTKPPSPYATITVGETSHKTKTVSQSSAPVWEESASFLIRKPHAESLELQVRGEGTGTLGSVSLPLSELLQEDQLCLDHWFALSGQGQVLMRAQLGILVSQHSGVEAHSHSYSHSHSSSSLNDEPEALGGPTHPASPVLEVRHRLTHGDSPSEAPVGPLGQVKLTVWYHSDEQKLISIIHSCRALRQNGRDLPDPYVSVLLLPDKNRSTKRKTPQKKRTLNPEFNERFEWDLPLDGTLRRKLDVSVKSNSSFMSRERELLGKVQLDLAEIDLSQGAAQWYDLMDDRDKGGS

The first experiment has as its target T1, Flag‐tagged Tipe1 (bait of the IP/mass spectrometry). Briefly: affinity purification with mass spectrometry; IP by Flag-tagged Tipe1 from MIN6 cells, mass spectrometry of the precipitate.
With B1, the binding result is on record as “binds”.
The same measure, in the same setting: for B2 the value was “binds”; for B3, “binds”.
For the molecule B4, the binding entry is given as “binds”.
The same measure, in the same setting: to B5 belongs “binds”.

Another experiment shares this target. The description is as above. The source holds these as a separate data set.
As for “USP9X (captured in the mass spectrometry) (from UniProt P70398 1-2559) (enzyme)”, the binding entry is recorded as “binds”.
Still for that read-out and setting: to Krt15 (from UniProt Q61414 1-452) belongs “binds”; to “WWP2 (captured in the mass spectrometry) (from UniProt Q9DBH0 1-870) (enzyme)”, “binds”.
Consider “Gαs, the α subunit of the G‐stimulating protein, endogenous in MIN6 cells (from UniProt P63094 1-394)”, for which the binding entry is recorded as “binds”.
Still for that read-out and setting: to Krt7 (from UniProt Q9DCV7 1-457) belongs “binds”; to “deubiquitinase USP5, endogenous in MIN6 cells (from UniProt P56399 1-858) (enzyme)”, “binds”.
Still for that read-out and setting: to Celf4 (from UniProt Q7TSY6 1-486) belongs “binds”.

Source of the values: publication PMC11040358.
